The supplement of paper PMC10849652
Some of the results follow.

Chains of the proteins cited; added tags and fusions are not shown. Lines headed by an entry give the natural chain unless they say otherwise; changes in a name come on top.
UniProt Q92990: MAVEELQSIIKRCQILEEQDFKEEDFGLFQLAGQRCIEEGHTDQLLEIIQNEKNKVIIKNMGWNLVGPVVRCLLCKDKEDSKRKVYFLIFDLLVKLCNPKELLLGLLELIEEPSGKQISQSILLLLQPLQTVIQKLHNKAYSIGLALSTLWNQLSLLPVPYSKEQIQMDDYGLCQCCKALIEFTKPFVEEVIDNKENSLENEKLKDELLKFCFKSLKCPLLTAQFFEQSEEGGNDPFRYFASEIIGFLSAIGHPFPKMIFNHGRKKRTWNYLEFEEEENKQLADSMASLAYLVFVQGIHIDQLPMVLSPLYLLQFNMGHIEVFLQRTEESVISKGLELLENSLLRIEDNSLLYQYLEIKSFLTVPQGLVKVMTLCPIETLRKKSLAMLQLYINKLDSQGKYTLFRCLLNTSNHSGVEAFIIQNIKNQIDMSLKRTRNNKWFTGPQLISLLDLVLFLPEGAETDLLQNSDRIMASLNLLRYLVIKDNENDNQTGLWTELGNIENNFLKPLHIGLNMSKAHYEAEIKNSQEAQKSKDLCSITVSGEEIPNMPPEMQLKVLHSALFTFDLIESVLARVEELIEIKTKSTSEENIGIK
UniProt O14653: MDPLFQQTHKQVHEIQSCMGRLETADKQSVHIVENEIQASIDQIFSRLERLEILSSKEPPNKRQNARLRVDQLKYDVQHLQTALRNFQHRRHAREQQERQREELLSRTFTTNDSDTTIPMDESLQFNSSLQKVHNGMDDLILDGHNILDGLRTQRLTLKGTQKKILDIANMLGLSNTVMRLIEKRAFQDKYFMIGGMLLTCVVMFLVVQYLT
UniProt Q86VQ1: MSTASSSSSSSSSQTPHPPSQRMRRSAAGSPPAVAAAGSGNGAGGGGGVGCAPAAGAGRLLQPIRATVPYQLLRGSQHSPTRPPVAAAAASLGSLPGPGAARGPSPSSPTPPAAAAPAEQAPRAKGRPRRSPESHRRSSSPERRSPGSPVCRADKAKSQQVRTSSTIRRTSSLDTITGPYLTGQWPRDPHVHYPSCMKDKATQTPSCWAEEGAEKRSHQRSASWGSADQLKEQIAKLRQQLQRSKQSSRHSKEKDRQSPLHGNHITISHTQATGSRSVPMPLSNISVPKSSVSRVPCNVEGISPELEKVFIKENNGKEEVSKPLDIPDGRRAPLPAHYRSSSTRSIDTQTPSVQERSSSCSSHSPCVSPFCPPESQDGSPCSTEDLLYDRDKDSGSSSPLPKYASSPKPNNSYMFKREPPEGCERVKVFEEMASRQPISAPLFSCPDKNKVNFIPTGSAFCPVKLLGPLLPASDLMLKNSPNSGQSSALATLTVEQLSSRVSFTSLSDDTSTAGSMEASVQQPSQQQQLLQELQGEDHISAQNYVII
UniProt O75420: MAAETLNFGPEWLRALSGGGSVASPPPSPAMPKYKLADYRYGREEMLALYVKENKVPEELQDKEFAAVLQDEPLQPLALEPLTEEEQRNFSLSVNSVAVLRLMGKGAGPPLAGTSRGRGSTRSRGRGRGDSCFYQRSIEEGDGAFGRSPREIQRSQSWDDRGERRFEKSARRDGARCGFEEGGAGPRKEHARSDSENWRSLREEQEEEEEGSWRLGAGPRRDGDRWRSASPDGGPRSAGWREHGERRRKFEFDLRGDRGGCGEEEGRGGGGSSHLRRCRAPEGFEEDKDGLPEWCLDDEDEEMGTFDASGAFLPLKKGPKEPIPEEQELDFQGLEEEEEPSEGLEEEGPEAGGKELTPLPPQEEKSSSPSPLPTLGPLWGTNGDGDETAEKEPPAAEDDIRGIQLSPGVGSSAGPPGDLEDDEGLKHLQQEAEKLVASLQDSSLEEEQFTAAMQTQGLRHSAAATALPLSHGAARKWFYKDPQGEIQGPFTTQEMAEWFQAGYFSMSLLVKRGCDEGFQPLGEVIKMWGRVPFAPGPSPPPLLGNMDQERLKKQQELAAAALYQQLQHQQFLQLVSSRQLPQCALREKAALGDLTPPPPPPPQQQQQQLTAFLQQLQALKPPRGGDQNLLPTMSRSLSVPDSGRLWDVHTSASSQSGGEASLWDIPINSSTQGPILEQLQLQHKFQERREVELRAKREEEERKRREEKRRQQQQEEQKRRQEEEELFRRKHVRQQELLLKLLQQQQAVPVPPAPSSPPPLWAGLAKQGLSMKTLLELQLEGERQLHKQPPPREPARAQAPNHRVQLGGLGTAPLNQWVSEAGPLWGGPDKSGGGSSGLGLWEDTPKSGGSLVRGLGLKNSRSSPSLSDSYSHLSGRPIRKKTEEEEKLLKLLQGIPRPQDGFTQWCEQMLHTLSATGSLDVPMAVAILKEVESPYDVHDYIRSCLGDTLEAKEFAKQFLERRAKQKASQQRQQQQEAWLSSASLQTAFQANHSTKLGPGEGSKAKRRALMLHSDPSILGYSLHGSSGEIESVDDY
UniProt Q15743: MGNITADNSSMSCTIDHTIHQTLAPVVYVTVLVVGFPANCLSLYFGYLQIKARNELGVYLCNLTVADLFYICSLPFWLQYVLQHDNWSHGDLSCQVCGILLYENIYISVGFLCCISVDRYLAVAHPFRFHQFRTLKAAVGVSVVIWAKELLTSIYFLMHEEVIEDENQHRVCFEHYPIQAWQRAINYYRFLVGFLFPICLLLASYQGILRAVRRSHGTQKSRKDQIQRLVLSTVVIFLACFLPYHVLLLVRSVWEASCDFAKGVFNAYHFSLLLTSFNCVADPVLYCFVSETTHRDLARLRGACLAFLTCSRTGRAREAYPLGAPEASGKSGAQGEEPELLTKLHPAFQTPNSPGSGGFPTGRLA
UniProt Q9UBI6: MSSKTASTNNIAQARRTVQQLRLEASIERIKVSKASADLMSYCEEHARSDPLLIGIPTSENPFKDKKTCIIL
UniProt O75487: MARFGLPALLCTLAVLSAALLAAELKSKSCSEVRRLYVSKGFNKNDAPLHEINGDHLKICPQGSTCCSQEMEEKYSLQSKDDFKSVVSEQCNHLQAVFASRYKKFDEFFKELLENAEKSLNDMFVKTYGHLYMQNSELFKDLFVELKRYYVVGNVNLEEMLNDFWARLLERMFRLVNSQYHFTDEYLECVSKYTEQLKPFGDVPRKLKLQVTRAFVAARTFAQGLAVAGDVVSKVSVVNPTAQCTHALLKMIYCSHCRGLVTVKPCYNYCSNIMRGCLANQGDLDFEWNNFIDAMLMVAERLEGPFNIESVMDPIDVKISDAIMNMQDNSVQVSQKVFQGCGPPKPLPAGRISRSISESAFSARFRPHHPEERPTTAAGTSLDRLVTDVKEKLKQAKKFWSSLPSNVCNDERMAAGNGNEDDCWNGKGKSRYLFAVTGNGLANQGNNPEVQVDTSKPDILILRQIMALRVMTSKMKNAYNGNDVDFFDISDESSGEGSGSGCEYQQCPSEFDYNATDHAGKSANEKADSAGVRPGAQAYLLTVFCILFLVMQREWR
UniProt Q9NVN8: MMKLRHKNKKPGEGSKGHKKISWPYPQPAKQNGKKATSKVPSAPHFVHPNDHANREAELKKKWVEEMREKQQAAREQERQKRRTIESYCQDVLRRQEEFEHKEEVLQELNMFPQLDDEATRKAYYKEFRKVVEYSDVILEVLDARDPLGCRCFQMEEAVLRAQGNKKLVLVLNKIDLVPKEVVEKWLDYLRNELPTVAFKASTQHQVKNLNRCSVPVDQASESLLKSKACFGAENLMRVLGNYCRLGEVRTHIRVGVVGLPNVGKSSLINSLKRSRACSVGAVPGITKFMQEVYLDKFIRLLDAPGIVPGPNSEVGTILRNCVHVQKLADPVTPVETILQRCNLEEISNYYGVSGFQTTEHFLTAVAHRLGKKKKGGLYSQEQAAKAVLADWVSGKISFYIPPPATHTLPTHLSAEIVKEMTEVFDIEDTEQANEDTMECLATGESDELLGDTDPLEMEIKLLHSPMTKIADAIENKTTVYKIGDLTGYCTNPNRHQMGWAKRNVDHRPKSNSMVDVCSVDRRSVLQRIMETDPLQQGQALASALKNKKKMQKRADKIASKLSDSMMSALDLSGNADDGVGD
UniProt A6NDN3: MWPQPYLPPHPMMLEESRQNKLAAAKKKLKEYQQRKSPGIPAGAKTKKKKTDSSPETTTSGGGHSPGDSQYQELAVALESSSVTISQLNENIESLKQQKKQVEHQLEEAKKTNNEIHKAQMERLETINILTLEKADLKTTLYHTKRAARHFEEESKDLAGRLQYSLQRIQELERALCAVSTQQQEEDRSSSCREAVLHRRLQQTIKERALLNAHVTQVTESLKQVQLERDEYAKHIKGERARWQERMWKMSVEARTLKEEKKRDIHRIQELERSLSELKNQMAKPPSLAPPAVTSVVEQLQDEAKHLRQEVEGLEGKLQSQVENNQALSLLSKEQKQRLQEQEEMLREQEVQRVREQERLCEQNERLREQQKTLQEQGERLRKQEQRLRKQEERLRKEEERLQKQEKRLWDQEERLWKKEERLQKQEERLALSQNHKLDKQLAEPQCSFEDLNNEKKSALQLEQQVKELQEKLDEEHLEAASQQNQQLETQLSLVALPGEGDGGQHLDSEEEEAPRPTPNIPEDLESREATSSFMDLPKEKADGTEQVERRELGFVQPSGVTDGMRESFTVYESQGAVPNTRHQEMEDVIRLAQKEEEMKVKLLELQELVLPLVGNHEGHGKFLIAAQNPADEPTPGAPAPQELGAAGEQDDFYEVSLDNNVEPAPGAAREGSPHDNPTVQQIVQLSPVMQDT
UniProt P22352, whole entry, looked up: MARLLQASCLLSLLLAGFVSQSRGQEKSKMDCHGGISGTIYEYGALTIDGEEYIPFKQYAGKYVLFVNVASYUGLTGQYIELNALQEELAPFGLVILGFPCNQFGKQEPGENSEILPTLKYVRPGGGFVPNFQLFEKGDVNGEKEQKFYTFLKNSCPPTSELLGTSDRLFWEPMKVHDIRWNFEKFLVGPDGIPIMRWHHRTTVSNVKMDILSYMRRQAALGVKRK
UniProt Q92805: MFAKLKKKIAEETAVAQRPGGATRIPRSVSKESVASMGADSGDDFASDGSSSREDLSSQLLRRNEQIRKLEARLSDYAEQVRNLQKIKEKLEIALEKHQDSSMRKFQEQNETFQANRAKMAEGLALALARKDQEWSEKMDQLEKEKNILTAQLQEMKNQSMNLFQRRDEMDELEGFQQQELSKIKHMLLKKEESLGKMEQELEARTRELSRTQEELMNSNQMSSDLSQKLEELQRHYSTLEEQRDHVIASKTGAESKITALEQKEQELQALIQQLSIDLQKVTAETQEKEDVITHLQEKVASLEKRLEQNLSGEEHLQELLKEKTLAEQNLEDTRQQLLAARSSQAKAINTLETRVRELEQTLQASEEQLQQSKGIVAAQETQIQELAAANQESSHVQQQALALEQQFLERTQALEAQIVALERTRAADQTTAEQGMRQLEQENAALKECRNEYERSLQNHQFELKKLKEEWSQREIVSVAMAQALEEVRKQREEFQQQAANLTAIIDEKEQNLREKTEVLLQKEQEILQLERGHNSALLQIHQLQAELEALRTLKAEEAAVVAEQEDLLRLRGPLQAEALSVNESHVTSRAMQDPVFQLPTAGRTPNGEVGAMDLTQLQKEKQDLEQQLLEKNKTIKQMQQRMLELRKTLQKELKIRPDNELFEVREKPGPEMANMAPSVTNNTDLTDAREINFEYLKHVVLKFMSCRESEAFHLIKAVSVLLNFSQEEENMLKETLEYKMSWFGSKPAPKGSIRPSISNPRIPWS
UniProt Q9BRR8: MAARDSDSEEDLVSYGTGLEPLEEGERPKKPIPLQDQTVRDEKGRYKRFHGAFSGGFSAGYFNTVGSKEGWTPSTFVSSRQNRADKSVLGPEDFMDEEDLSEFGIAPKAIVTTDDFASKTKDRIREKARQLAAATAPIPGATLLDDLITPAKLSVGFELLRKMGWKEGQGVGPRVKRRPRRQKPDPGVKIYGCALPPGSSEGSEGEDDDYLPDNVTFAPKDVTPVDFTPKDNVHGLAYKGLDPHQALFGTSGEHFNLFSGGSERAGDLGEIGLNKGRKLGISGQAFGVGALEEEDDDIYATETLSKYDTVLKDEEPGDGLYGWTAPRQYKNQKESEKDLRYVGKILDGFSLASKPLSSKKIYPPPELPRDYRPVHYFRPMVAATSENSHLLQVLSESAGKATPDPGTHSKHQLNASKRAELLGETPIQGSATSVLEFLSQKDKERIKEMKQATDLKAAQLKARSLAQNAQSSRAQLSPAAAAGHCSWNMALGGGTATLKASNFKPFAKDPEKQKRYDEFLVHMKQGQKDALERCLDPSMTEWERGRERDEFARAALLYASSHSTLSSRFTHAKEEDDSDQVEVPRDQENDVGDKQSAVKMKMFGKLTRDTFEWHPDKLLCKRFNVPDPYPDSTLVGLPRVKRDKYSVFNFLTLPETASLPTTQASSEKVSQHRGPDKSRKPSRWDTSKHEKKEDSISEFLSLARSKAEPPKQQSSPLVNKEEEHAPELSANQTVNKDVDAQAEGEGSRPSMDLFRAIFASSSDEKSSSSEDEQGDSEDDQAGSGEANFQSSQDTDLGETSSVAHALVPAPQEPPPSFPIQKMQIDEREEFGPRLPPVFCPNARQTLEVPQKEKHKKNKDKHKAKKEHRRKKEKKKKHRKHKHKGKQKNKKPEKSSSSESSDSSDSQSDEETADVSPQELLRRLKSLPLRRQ

What was measured:
Test in all cases: log2 fold change, soluble protein after heating vs DMSO (PISA); higher = thermal stabilisation; K562 cells, 10 uM, 30 min; active = over 0.2 and 3.5 SD of the protein, either way, in both replicates (recomputed)
[1] = compound: COC1=CC=C(C=C1)CN2C=CC3=C2C=C(C=C3)C(=O)NO
In short: (§1)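 Aliquots of K562 cells (2×10^6 cells/mL) treated with 10 μM compound for 30 min were heated for 3 min over 48°C-58°C. After pooling and extraction in PBS with 0.5% NP-40 at 4°C, soluble protein from a 21,000xg, 90 min spin was quantified by TMTpro 16plex LC-MS/MS with channel sums equalised. Thermal stability is expressed against control samples, from duplicates, as a log2 fold change.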

filanesib = compound: CON(C)C(=O)N1N=C(c2cc(F)ccc2F)S[C@@]1(CCCN)c1ccccc1 [filanesib]
In short: as §1

zotarolimus = compound: CO[C@H]1C[C@@H]2CC[C@@H](C)[C@@](O)(O2)C(=O)C(=O)N2CCCC[C@H]2C(=O)O[C@H]([C@H](C)C[C@@H]2CC[C@H](n3cnnn3)[C@H](OC)C2)CC(=O)[C@H](C)/C=C(\C)[C@@H](O)[C@@H](OC)C(=O)[C@H](C)C[C@H](C)/C=C/C=C/C=C/1C [zotarolimus]
In short: as §1

idasanutlin = compound: COc1cc(C(=O)O)ccc1NC(=O)[C@@H]1N[C@@H](CC(C)(C)C)[C@](C#N)(c2ccc(Cl)cc2F)[C@H]1c1cccc(Cl)c1F [idasanutlin]
In short: as §1

alisertib = compound: COc1cc(Nc2ncc3c(n2)-c2ccc(Cl)cc2C(c2c(F)cccc2OC)=NC3)ccc1C(=O)O [alisertib]
In short: as §1

[2] = compound: COc1cc2nc(-c3cc(F)ccc3O)nc(N[C@@H]3CNC[C@H]3C(C)(C)O)c2cc1OC
In short: as §1

[3] = compound: COc1cccc2cc(-c3nc([C@H]4CC[C@H](C(=O)O)CC4)n4ncnc(N)c34)[nH]c12
In short: as §1

lapatinib = compound: CS(=O)(=O)CCNCc1ccc(-c2ccc3ncnc(Nc4ccc(OCc5cccc(F)c5)c(Cl)c4)c3c2)o1 [lapatinib]
In short: as §1

pictilisib = compound: CS(=O)(=O)N1CCN(Cc2cc3nc(-c4cccc5[nH]ncc45)nc(N4CCOCC4)c3s2)CC1 [pictilisib]
In short: as §1

gefitinib = compound: COc1cc2ncnc(Nc3ccc(F)c(Cl)c3)c2cc1OCCCN1CCOCC1 [gefitinib]
In short: as §1

Target	log2 fold change [1]	log2 fold change (filanesib)	log2 fold change (zotarolimus)	log2 fold change (idasanutlin)	log2 fold change (alisertib)	log2 fold change [2]	log2 fold change [3]	log2 fold change (lapatinib)	log2 fold change (pictilisib)	log2 fold change (gefitinib)
GLIPR2 (UniProt Q9H4G4)	inactive: 0	inactive: -0.147	inactive: 0.024	inactive: 0.096	inactive: -0.031	inactive: -0.239	inactive: -0.036	inactive: 0.103	inactive: -0.011	
GPHN isoform 2 (UniProt Q9NQX3)	inactive: 0.013	inactive: 0.021	inactive: -0.003	inactive: -0.019	inactive: -0.026	inactive: 0.037	inactive: 0.065	inactive: -0.015	inactive: 0.051	inactive: 0.004
GOLIM4 (UniProt O00461)	inactive: 0.021	inactive: -0.007	inactive: 0.015	inactive: -0.018	inactive: -0.007	inactive: -0.011	inactive: 0.053	inactive: 0.024	inactive: 0.084	inactive: 0.085
GLMN (UniProt Q92990)	inactive: -0.014	inactive: -0.007	inactive: -0.184	inactive: -0.098	inactive: -0.012	inactive: 0.001	inactive: 0.021	inactive: 0.017	inactive: -0.038	inactive: 0.007
GOSR2 isoform 2 (UniProt O14653)	inactive: 0.07	inactive: -0.144	inactive: 0.072	inactive: -0.015	inactive: -0.011	inactive: -0.161	inactive: -0.004	inactive: 0.019	inactive: -0.018	inactive: -0.022
GIT1 isoform 3 (UniProt Q9Y2X7)	inactive: -0.125	inactive: 0.081	inactive: -0.06	inactive: 0.112	inactive: -0.03	inactive: -0.006	inactive: 0.002	inactive: 0.04		
GLA (UniProt P06280)	inactive: 0.033	inactive: -0.048	inactive: -0.003	inactive: 0.06	inactive: -0.089	inactive: 0.018	inactive: 0.01	inactive: -0.026	inactive: -0.06	inactive: -0.011
GNL1 (UniProt P36915)	inactive: 0.047	inactive: -0.066	inactive: 0.049	inactive: -0.056	inactive: -0.107	inactive: 0.039	inactive: 0.061	inactive: 0.011	inactive: 0.04	inactive: 0.031
GMIP (UniProt Q9P107)	inactive: 0.087	inactive: 0.038	inactive: -0.024							inactive: -0.1
GPAT4 (UniProt Q86UL3)	inactive: -0.034	inactive: -0.024	inactive: 0.055	inactive: -0.093	inactive: 0.01	inactive: 0.188	inactive: -0.046	inactive: -0.031	inactive: 0.036	inactive: 0.006
GK (UniProt P32189)	inactive: 0	inactive: -0.036	inactive: -0.034	inactive: -0.018	inactive: -0.018	inactive: 0.028	inactive: 0.077	inactive: -0.01	inactive: 0.009	inactive: 0.01
GNB1 (UniProt P62873)	inactive: 0.019	inactive: -0.1	inactive: 0.043	inactive: 0.054	inactive: -0.098	inactive: 0.03	inactive: -0.01	inactive: 0	inactive: 0.083	inactive: 0.082
GLCCI1 (UniProt Q86VQ1)	inactive: 0.009	inactive: 0.052	inactive: 0.067	inactive: 0.11	inactive: -0.025	inactive: -0.096	inactive: 0.083	inactive: -0.02	inactive: -0.039	inactive: 0.109
GMPPB isoform 2 (UniProt Q9Y5P6)	inactive: 0.016	inactive: -0.126	inactive: 0.008	inactive: -0.065	inactive: 0.097	inactive: 0.009	inactive: 0.103	inactive: 0	inactive: -0.057	inactive: 0.02
GOLGA5 (UniProt Q8TBA6)	inactive: 0	inactive: 0.01	inactive: -0.014	inactive: -0.026	inactive: 0.047	inactive: 0.036	inactive: 0.035	inactive: 0.001	inactive: 0.028	inactive: 0.03
GIGYF1 (UniProt O75420)	inactive: -0.1	inactive: 0	inactive: 0.158			inactive: 0.261		inactive: 0.127	inactive: 0.011	
GNA13 (UniProt Q14344)	inactive: -0.033	inactive: 0.065	inactive: -0.001	inactive: -0.09	inactive: -0.01	inactive: 0.113	inactive: 0.037	inactive: 0.008	inactive: 0.052	inactive: 0.07
GPR68 (UniProt Q15743)	inactive: -0.098			inactive: 0.161						
GPT2 (UniProt Q8TD30)			inactive: -0.27	inactive: -0.092	inactive: -0.407	inactive: 0.066	inactive: -0.254	inactive: 0.005	inactive: 0.33	

Target	log2 fold change [1]	log2 fold change (filanesib)	log2 fold change (zotarolimus)	log2 fold change (idasanutlin)	log2 fold change (alisertib)	log2 fold change [2]	log2 fold change [3]	log2 fold change (lapatinib)	log2 fold change (pictilisib)	log2 fold change (gefitinib)
GNG12 (UniProt Q9UBI6)									inactive: -0.12	
GLS2 (UniProt Q9UI32)			inactive: 0.261	inactive: 0.086						
GPAM (UniProt Q9HCL2)	inactive: -0.081	inactive: 0.123		inactive: 0.037		inactive: 0.079		inactive: 0.067	inactive: -0.111	inactive: 0.048
GPR180 (UniProt Q86V85)		inactive: -0.168	inactive: -0.027	inactive: -0.054	inactive: -0.071	inactive: 0.117	inactive: 0.229	inactive: -0.032	inactive: 0.111	
GLT8D1 (UniProt Q68CQ7)				inactive: -0.211					inactive: 0.068	inactive: 0.014
GOSR1 (UniProt E9PCW1)			inactive: 0.075		inactive: -0.177	inactive: -0.262	inactive: 0.176	inactive: 0.097		
GLTP (UniProt Q9NZD2)		inactive: -0.187	inactive: -0.008	inactive: -0.044	inactive: 0.335	inactive: 0.167	inactive: 0.05	inactive: -0.039	inactive: -0.057	inactive: 0.024
GJA1 (UniProt P17302)									inactive: -0.075	
GNL3 (UniProt Q9BVP2)		inactive: -0.038	inactive: -0.012	inactive: -0.212	inactive: -0.12		inactive: 0.071		inactive: 0.061	inactive: 0.067
GPR108 (UniProt Q9NPR9)		inactive: 0.002	inactive: 0.023	inactive: -0.057	inactive: 0.011	inactive: -0.109	inactive: 0.047	inactive: 0.053		inactive: 0.016
GORASP1 (UniProt Q9BQQ3)			inactive: -0.069			inactive: -0.138		inactive: -0.174		
GP6 isoform 3 (UniProt Q9HCN6)	inactive: 0.204		inactive: 0.104		inactive: -0.288		inactive: 0.072			
GPC4 (UniProt O75487)									inactive: 0.293	
GPD1 (UniProt P21695)		inactive: -0.083	inactive: 0.022	inactive: -0.289	inactive: 0.077	inactive: -0.051	inactive: 0.111	inactive: 0.015	inactive: 0.203	inactive: 0.368
GIT2 (UniProt Q14161)	inactive: -0.17		inactive: 0.106	inactive: 0.108	inactive: 0.168	inactive: 0.091	inactive: 0.163	inactive: 0.058		inactive: 0.115
GNMT (UniProt Q14749)		inactive: -0.034	inactive: 0.136	inactive: -0.331	inactive: 0.206	inactive: -0.062	inactive: 0.022	inactive: 0.11	inactive: -0.166	inactive: -0.077
GNL3L (UniProt Q9NVN8)									inactive: -0.053	
GPCPD1 (UniProt Q9NPB8)		inactive: 0.139	inactive: -0.066		inactive: -0.096	inactive: -0.041	inactive: -0.101	inactive: 0.027	inactive: -0.101	
GNPTG (UniProt Q9UJJ9)	inactive: -0.123		inactive: 0.002	inactive: -0.01	inactive: 0.016		inactive: 0.123		inactive: 0.14	inactive: 0.083

Target	log2 fold change [1]	log2 fold change (filanesib)	log2 fold change (zotarolimus)	log2 fold change (idasanutlin)	log2 fold change (alisertib)	log2 fold change [2]	log2 fold change [3]	log2 fold change (lapatinib)	log2 fold change (pictilisib)	log2 fold change (gefitinib)
GPSM3 (UniProt Q9Y4H4)		inactive: -0.129	inactive: 0.1	inactive: -0.168	inactive: -0.245	inactive: -0.089	inactive: 0.073	inactive: -0.235		inactive: 0.002
GNL2 (UniProt Q13823)					inactive: -0.177		inactive: 0.051		inactive: 0.025	
GPS2 (UniProt Q13227)	inactive: -0.108	inactive: 0.018			inactive: -0.067	inactive: 0.135	inactive: 0.152	inactive: -0.044		inactive: 0.008
GORAB (UniProt Q5T7V8)		inactive: 0.001				inactive: 0.234		inactive: -0.23		inactive: -0.004
GPS1 (UniProt A8K070)	inactive: 0.122		inactive: 0.07		inactive: -0.043		inactive: 0		inactive: 0.171	inactive: 0.045
GOLGA6B (UniProt A6NDN3)	inactive: 0.088	inactive: -0.115			inactive: -0.092		inactive: 0.102		inactive: 0.144	inactive: 0.012
GK5 (UniProt Q6ZS86)	inactive: -0.008		inactive: -0.049	inactive: -0.034		inactive: -0.025		inactive: 0.152	inactive: -0.344	
GPATCH4 isoform 3 (UniProt Q5T3I0)	inactive: -0.234		inactive: 0.028			inactive: 0.078		inactive: 0.258	inactive: 0.002	
GPX3 (UniProt P22352)			inactive: -0.261	inactive: 0.011		inactive: -0.002		inactive: -0.039		
GSE1 (UniProt Q14687)			inactive: -0.063							inactive: 0.224
GOLGA8R (UniProt I6L899)	active: 0.591		inactive: -0.027	inactive: 0.022		inactive: 0.345		inactive: -0.093	inactive: 0.01	
GLE1 (UniProt Q53GS7)			inactive: -0.046	inactive: 0.419						
GOLGA1 (UniProt Q92805)				inactive: 0.02		inactive: -0.236		inactive: 0.027	inactive: -0.136	
GPAA1 (UniProt E9PLG8)	inactive: -0.174		inactive: 0.004	inactive: -0.093	inactive: -0.05		inactive: -0.179		inactive: -0.037	inactive: -0.062
GOLM1 (UniProt Q8NBJ4)		inactive: 0.005	inactive: -0.181		inactive: -0.096	inactive: -0.004	inactive: 0.26	inactive: 0.067		inactive: -0.028
GOLPH3L (UniProt Q9H4A5)	inactive: -0.185	inactive: 0.206		inactive: -0.001	inactive: 0.239		inactive: -0.15		inactive: -0.003	
GPATCH1 (UniProt Q9BRR8)		inactive: 0.021	inactive: 0.11			inactive: 0.121		inactive: 0.005		
GINM1 (UniProt Q9NU53)		inactive: 0.025			inactive: -0.417	inactive: -0.129	inactive: 0.038	inactive: -0.004	inactive: 0.069	inactive: -0.367

Reformatted: results already given.
Target,log2 fold change [1],log2 fold change (filanesib),log2 fold change (zotarolimus),log2 fold change (idasanutlin),log2 fold change (alisertib),log2 fold change [2],log2 fold change [3],log2 fold change (lapatinib),log2 fold change (pictilisib),log2 fold change (gefitinib)
GPSM3 (UniProt Q9Y4H4),,inactive: -0.129,inactive: 0.1,inactive: -0.168,inactive: -0.245,inactive: -0.089,inactive: 0.073,inactive: -0.235,,inactive: 0.002
GNL2 (UniProt Q13823),,,,,inactive: -0.177,,inactive: 0.051,,inactive: 0.025,
GPS1 (UniProt A8K070),inactive: 0.122,,inactive: 0.07,,inactive: -0.043,,inactive: 0,,inactive: 0.171,inactive: 0.045
GOLGA6B (UniProt A6NDN3),inactive: 0.088,inactive: -0.115,,,inactive: -0.092,,inactive: 0.102,,inactive: 0.144,inactive: 0.012
GK5 (UniProt Q6ZS86),inactive: -0.008,,inactive: -0.049,inactive: -0.034,,inactive: -0.025,,inactive: 0.152,inactive: -0.344,
GPATCH4 isoform 3 (UniProt Q5T3I0),inactive: -0.234,,inactive: 0.028,,,inactive: 0.078,,inactive: 0.258,inactive: 0.002,
GPX3 (UniProt P22352),,,inactive: -0.261,inactive: 0.011,,inactive: -0.002,,inactive: -0.039,,
GSE1 (UniProt Q14687),,,inactive: -0.063,,,,,,,inactive: 0.224
GOLGA8R (UniProt I6L899),active: 0.591,,inactive: -0.027,inactive: 0.022,,inactive: 0.345,,inactive: -0.093,inactive: 0.01,
GLE1 (UniProt Q53GS7),,,inactive: -0.046,inactive: 0.419,,,,,,
GPAA1 (UniProt E9PLG8),inactive: -0.174,,inactive: 0.004,inactive: -0.093,inactive: -0.05,,inactive: -0.179,,inactive: -0.037,inactive: -0.062
GOLM1 (UniProt Q8NBJ4),,inactive: 0.005,inactive: -0.181,,inactive: -0.096,inactive: -0.004,inactive: 0.26,inactive: 0.067,,inactive: -0.028
GOLPH3L (UniProt Q9H4A5),inactive: -0.185,inactive: 0.206,,inactive: -0.001,inactive: 0.239,,inactive: -0.15,,inactive: -0.003,
GPATCH1 (UniProt Q9BRR8),,inactive: 0.021,inactive: 0.11,,,inactive: 0.121,,inactive: 0.005,,
GINM1 (UniProt Q9NU53),,inactive: 0.025,,,inactive: -0.417,inactive: -0.129,inactive: 0.038,inactive: -0.004,inactive: 0.069,inactive: -0.367
